Results taken from article PMC12474859.
No constants are given. Whether binding was seen depends on the method and setting. Binding seen in cells or lysates may run through a third protein. These calls come from enrichment with a bait or labelling near it, and not all partners need be listed. Tags and fused reporters may be left off the sequences shown.

Protein sequences, listed by entry. Tags and fused reporters are not part of them.
UniProt P12004: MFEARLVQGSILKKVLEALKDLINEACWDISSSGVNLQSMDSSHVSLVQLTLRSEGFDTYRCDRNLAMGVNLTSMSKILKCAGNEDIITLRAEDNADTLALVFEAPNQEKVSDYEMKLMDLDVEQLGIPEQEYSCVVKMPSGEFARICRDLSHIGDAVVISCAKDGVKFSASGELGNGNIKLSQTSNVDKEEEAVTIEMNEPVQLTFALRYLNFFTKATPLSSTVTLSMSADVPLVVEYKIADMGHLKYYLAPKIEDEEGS
UniProt P54727: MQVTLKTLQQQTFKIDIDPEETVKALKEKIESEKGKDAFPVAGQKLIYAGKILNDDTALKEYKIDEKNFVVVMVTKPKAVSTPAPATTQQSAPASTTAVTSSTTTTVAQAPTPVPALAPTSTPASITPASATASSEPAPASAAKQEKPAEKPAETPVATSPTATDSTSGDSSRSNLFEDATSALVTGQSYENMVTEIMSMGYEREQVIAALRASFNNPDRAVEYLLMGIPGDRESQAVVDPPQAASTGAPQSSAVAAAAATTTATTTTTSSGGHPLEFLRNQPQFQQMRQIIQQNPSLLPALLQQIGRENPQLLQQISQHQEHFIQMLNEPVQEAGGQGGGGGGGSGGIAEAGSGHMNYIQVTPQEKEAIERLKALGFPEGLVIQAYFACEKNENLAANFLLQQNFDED
UniProt P78527: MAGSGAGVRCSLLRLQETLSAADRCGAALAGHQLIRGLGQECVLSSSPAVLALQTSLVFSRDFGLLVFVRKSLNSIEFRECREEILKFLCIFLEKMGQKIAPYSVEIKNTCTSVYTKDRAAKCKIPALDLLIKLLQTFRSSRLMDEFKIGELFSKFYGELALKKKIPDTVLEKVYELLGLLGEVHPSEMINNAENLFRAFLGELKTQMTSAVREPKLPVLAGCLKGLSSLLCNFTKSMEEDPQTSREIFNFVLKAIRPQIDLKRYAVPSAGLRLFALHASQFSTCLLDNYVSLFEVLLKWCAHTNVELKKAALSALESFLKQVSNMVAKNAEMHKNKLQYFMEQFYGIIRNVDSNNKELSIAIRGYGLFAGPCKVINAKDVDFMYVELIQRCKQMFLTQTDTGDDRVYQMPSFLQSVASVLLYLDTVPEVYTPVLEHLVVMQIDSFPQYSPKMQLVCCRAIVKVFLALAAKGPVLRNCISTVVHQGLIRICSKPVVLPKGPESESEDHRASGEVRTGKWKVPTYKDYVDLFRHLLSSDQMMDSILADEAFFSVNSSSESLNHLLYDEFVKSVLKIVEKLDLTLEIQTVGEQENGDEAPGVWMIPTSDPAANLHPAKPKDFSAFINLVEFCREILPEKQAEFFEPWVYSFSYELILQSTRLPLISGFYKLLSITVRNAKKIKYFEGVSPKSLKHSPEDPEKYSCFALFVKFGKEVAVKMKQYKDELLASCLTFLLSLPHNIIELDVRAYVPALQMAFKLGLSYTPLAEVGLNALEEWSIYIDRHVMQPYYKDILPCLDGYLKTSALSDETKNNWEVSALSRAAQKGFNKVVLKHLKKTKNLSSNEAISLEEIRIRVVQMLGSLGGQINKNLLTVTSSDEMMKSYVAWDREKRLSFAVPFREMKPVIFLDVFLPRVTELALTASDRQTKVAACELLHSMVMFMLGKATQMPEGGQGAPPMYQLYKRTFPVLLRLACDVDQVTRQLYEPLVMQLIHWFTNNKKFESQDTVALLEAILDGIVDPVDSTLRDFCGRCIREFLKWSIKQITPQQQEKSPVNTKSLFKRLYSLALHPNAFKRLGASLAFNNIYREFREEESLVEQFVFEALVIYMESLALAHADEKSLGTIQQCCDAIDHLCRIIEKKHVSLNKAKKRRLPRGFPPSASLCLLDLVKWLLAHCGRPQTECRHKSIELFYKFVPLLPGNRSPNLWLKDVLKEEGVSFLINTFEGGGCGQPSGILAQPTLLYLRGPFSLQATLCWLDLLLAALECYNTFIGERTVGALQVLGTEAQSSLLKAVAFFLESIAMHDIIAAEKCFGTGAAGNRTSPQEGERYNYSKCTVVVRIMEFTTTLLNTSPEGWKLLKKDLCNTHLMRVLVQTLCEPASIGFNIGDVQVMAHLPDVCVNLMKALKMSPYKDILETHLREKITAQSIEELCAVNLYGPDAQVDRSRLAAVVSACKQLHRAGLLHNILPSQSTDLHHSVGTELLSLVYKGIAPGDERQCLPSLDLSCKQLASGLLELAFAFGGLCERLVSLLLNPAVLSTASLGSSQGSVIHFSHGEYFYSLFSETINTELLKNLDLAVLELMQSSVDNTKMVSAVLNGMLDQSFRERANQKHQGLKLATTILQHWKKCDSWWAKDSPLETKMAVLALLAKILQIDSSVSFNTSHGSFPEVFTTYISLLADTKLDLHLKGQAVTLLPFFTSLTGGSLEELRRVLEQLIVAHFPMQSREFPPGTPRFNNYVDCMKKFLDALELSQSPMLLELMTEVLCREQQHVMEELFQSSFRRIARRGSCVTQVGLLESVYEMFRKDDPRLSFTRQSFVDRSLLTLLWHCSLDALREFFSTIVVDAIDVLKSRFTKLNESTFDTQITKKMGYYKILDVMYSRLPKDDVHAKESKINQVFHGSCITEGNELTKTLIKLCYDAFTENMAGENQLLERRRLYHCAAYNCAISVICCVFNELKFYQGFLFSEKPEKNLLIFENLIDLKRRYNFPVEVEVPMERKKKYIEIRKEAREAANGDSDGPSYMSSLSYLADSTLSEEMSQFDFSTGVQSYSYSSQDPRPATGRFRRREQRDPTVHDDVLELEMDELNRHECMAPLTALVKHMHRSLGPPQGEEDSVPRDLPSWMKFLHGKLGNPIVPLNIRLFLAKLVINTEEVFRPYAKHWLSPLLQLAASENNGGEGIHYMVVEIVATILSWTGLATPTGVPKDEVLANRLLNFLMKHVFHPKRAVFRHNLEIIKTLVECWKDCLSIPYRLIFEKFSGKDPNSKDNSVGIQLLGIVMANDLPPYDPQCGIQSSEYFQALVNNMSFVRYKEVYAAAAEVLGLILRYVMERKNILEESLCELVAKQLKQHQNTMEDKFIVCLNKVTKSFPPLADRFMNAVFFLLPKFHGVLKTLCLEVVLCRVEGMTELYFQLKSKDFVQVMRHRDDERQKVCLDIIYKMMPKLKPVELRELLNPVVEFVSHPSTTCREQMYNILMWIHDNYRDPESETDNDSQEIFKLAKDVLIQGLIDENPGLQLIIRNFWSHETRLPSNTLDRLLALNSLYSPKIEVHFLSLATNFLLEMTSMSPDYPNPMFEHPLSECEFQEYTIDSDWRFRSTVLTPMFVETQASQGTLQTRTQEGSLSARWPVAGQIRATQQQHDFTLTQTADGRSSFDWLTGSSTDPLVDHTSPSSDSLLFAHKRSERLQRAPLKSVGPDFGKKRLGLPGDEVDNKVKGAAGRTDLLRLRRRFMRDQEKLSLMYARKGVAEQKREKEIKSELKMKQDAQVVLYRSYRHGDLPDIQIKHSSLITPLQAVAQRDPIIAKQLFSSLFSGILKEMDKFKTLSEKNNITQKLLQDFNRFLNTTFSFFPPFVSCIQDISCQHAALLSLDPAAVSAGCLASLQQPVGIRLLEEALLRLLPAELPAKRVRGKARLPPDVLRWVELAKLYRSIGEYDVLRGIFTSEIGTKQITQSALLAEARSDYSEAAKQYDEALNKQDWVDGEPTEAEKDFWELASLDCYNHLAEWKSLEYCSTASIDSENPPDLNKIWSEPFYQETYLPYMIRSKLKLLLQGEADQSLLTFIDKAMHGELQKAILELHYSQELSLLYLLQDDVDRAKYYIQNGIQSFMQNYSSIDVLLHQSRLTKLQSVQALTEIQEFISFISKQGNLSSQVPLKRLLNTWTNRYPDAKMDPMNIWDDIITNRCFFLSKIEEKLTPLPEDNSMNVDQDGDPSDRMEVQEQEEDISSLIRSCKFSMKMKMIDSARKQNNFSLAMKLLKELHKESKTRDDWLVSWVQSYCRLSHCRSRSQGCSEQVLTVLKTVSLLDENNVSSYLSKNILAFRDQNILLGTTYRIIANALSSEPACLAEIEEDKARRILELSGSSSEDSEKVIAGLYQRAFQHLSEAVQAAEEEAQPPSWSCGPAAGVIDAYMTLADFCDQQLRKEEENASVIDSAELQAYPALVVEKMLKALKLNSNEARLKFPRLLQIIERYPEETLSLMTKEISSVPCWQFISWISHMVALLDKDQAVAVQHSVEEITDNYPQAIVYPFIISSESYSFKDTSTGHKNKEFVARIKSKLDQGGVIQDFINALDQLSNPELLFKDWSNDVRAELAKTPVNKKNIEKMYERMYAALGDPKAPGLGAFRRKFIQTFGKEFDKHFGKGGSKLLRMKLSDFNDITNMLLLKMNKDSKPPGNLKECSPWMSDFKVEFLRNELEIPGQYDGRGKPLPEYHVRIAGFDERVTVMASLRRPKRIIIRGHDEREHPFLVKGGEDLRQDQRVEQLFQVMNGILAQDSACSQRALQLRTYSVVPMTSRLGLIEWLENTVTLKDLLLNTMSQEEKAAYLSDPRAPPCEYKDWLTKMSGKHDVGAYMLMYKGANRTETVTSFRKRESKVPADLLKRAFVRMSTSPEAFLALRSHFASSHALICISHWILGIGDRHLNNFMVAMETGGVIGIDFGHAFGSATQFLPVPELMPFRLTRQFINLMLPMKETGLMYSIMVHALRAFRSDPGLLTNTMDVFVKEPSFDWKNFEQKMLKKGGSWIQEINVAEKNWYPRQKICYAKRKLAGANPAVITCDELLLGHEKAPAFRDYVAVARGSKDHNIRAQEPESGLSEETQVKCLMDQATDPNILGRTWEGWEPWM
UniProt P09874: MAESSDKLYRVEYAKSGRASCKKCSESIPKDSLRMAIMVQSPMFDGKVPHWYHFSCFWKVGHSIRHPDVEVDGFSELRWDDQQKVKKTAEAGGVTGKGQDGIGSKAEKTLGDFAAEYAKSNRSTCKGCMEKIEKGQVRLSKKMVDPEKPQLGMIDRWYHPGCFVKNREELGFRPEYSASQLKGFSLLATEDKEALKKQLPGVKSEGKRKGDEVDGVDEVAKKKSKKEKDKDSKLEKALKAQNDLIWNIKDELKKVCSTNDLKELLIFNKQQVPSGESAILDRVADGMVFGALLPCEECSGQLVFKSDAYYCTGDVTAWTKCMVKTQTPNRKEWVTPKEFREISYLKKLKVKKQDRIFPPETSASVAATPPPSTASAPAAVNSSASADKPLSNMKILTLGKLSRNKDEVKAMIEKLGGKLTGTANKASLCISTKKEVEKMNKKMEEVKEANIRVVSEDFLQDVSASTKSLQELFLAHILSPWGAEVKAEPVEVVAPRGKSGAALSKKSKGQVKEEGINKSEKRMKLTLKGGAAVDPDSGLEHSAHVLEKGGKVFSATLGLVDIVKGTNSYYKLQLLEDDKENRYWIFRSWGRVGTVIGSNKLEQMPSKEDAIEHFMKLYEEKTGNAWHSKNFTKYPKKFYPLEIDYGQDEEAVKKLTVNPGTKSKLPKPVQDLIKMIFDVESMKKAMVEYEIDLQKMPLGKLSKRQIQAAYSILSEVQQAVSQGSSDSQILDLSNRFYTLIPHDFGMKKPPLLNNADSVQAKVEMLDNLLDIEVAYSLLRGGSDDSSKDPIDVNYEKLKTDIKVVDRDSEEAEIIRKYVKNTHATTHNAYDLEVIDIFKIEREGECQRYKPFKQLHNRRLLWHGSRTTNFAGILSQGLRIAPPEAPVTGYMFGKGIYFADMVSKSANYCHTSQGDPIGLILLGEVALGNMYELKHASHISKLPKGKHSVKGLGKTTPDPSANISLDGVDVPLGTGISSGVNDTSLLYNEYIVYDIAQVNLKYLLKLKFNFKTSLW
UniProt P54725: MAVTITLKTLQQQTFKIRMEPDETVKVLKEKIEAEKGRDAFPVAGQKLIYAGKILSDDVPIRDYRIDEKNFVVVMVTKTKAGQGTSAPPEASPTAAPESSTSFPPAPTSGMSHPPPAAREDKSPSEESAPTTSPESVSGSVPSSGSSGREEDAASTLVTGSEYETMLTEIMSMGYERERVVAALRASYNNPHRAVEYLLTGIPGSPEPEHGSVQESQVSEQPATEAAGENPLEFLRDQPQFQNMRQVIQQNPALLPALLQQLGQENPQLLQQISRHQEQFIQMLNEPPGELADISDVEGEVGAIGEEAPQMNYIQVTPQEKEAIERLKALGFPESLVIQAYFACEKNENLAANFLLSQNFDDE

The substances below were run against 3x-Flag-tagged DNA2 (human) (UniProt P51530) (assay: affinity purification with mass spectrometry; 3x-Flag-DNA2 from transfected 293T extracts held on anti-Flag M2 magnetic beads overnight; IP buffer 50 mM HEPES-KOH pH 7.4, 150 mM NaCl, 0.1% NP40, 10% glycerol; one wash with 500 mM NaCl; eluted with 3x-Flag peptide; gel bands digested, LC/MS; enrichment relative to the empty vector control).

| binding | Substance |
| --- | --- |
| binds | PCNA (from UniProt P12004 1-261) |
| binds | RAD23B (from UniProt P54727 1-409) |
| binds | DNA-PK (from UniProt P78527 1-4128) (enzyme) |
| binds | PARP1 (from UniProt P09874 1-1014) (enzyme) |
| binds | RAD23A (from UniProt P54725 1-363) |
